Source: article PMC6640709, “Selection and Characterization of a Nanobody Biosensor of GTP-Bound RHO Activities” (Antibodies, 2019)
No constants are given. Whether binding was seen depends on the method and setting. Binding seen in cells or lysates may run through a third protein. Binding can be weak; no strength is given.

Protein sequences, listed by entry. Tags and fused reporters are not part of them. Lines headed by an entry give the natural chain unless they say otherwise; changes in a name come on top.
UniProt Q9BST9: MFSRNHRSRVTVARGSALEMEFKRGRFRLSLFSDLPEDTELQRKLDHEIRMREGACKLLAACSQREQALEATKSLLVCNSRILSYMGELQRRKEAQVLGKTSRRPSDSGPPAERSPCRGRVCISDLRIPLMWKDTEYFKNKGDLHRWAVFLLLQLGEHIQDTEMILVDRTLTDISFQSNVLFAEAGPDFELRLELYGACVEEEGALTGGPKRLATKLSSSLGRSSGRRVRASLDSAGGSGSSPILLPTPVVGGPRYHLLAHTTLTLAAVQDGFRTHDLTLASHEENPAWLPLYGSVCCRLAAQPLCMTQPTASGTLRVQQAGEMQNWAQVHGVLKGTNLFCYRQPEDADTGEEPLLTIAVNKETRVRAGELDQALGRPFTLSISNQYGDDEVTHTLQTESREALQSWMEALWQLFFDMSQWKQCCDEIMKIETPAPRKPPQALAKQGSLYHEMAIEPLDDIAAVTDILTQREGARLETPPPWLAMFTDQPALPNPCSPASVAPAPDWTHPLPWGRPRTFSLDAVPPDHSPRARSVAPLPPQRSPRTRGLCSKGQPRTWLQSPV
UniProt P61586: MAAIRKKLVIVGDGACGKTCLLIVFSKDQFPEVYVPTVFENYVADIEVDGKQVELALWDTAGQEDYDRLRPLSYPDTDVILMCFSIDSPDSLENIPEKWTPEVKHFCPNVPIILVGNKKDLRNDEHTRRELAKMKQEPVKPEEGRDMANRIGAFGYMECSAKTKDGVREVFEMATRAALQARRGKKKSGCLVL

Target: GST-RHOTEKIN RHO binding domain (RBD) (UniProt Q9BST9)
Assay: pull-down; lysates of HeLa cells expressing hs2dAb NR, RH12 or RH57 incubated with GST-RBD beads, 45 min 4 °C; blot anti-RHOA; only the target purified

endogenous RHOA (from UniProt P61586 1-193)
binding: binds
